Laboratory results taken from article PMC5783870.
These are yes or no findings as the source states them, for the method shown. In cells and extracts the contact can be indirect. Some results given as binding are weak or reduced against the parent protein; the word gives no strength.

The chains behind the UniProt entries cited, without tags or fusion partners. Residues count along the entry.
UniProt Q9QUK6, residues 26-835: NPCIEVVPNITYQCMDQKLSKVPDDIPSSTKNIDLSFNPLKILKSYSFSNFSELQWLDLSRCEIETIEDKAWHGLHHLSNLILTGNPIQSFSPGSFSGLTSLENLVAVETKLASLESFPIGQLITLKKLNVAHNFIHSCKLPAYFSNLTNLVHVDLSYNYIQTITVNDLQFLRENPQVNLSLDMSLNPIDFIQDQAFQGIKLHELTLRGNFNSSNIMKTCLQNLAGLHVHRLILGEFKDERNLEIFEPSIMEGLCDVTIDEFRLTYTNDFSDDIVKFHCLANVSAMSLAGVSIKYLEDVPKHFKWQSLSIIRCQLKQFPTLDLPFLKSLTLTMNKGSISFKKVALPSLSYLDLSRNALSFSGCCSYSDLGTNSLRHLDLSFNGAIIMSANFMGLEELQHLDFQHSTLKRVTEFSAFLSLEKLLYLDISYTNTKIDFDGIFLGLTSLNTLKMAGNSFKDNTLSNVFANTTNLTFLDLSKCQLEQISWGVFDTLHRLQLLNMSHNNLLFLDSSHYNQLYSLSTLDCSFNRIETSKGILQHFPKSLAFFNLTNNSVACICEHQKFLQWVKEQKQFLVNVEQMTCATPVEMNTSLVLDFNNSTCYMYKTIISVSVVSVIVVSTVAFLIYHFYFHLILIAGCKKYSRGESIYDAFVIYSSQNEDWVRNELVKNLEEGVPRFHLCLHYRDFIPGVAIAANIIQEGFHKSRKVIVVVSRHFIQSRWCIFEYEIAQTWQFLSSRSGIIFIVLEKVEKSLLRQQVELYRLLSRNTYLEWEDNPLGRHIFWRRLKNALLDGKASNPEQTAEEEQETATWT
UniProt O00206, residues 24-839: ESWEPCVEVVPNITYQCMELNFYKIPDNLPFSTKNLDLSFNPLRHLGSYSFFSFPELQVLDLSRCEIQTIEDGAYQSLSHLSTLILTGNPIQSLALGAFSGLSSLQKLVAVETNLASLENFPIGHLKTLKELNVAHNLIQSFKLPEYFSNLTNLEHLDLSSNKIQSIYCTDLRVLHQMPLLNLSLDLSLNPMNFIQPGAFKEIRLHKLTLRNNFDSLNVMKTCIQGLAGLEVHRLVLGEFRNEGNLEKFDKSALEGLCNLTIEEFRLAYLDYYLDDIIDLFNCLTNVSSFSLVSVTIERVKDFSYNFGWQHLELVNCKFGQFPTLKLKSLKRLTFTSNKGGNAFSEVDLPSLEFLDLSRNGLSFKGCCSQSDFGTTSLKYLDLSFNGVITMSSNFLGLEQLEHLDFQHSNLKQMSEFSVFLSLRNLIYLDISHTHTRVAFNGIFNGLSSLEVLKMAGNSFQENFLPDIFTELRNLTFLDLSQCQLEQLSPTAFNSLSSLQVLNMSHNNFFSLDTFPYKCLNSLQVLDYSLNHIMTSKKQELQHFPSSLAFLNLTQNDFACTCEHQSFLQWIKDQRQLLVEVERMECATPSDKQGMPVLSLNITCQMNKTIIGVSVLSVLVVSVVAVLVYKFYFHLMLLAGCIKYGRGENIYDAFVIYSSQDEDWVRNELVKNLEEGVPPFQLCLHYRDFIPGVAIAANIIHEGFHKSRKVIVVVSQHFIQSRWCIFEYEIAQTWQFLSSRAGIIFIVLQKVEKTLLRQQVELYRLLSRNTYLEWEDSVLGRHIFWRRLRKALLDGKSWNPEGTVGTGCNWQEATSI

Columns and labels:
[1] = target: Toll-like receptor 4 (TLR4), mouse, endogenous in liver tissue (mouse (endogenous in liver tissue of C57BL/6 mice)) (UniProt Q9QUK6); assay: co-IP; liver tissue samples of mice (control diet, HFD, HFD with L6H21, MD2-/-) incubated with anti-TLR4 antibody at 4°C overnight, precipitated with protein G-Sepharose beads at 4°C for 3 hrs; MD2 detected by Western blot
[2] = target: Toll-like receptor 4 (TLR4), human, endogenous in HepG2 cells (human (endogenous in HepG2)) (UniProt O00206); assay: co-IP; HepG2 cell protein samples (pre-treated with L6H21 0.4, 1.0 or 2.5 μM for 1 hr, then PA 200 μM for 24 hrs) incubated with anti-TLR4 antibody at 4°C overnight, precipitated with protein G-Sepharose beads at 4°C for 3 hrs; MD2 detected by Western blot

B1: Myeloid differentiation factor 2 (MD2), mouse, endogenous in liver tissue (protein, UniProt Q9JHF9 19-160)
chain: EKQQWFCNSSDAIISYSYCDHLKFPISISSEPCIRLRGTNGFVHVEFIPRGNLKYLYFNLFISVNSIELPKRKEVLCHGHDDDYSFCRALKGETVNTSIPFSFEGILFPKGHYRCVAEAIAGDTEEKLFCLNFTIIHRRDVN
[1]
  binding: binds

B2: Myeloid differentiation factor 2 (MD2), human, endogenous in HepG2 cells (protein, UniProt Q9Y6Y9 19-160)
chain: QKQYWVCNSSDASISYTYCDKMQYPISINVNPCIELKRSKGLLHIFYIPRRDLKQLYFNLYITVNTMNLPKRKEVICRGSDDDYSFCRALKGETVNTTISFSFKGIKFSKGKYKCVVEAISGSPEEMLFCLEFVILHQPNSN
[2]
  binding: binds
